No constants are given. Whether binding was seen depends on the method and setting. In cells and extracts the contact can be indirect. Some entries that bind do so weakly or less than the wild type. Sequences can lack the tags named with a protein.
Assays:
[1] = molecular target: T1, HA-tagged cMLCK(171–795) (mouse) (UniProt Q3UIZ8); assay: co-IP; HA-tagged cMLCK forms and Myc-tagged α-actinin2 forms mixed in vitro; how the complex was isolated and detected is not told for this experiment
T1 sequence: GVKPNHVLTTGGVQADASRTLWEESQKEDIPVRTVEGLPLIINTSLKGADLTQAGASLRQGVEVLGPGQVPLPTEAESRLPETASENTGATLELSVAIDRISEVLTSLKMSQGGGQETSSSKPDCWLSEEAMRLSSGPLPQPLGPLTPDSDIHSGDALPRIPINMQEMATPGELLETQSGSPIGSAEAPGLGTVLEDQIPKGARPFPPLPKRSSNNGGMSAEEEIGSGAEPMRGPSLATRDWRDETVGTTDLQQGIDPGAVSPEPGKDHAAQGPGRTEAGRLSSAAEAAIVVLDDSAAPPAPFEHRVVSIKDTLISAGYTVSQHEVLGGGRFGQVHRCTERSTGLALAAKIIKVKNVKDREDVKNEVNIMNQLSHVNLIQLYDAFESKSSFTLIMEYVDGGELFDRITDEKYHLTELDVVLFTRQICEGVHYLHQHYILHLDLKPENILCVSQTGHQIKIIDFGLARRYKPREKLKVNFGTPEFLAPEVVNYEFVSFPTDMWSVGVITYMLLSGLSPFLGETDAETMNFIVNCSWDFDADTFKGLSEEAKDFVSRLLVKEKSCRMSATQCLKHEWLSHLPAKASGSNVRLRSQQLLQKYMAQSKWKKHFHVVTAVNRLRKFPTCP

By UniProt entry, the sequences of proteins in these tests, tags left out.
UniProt Q9JI91: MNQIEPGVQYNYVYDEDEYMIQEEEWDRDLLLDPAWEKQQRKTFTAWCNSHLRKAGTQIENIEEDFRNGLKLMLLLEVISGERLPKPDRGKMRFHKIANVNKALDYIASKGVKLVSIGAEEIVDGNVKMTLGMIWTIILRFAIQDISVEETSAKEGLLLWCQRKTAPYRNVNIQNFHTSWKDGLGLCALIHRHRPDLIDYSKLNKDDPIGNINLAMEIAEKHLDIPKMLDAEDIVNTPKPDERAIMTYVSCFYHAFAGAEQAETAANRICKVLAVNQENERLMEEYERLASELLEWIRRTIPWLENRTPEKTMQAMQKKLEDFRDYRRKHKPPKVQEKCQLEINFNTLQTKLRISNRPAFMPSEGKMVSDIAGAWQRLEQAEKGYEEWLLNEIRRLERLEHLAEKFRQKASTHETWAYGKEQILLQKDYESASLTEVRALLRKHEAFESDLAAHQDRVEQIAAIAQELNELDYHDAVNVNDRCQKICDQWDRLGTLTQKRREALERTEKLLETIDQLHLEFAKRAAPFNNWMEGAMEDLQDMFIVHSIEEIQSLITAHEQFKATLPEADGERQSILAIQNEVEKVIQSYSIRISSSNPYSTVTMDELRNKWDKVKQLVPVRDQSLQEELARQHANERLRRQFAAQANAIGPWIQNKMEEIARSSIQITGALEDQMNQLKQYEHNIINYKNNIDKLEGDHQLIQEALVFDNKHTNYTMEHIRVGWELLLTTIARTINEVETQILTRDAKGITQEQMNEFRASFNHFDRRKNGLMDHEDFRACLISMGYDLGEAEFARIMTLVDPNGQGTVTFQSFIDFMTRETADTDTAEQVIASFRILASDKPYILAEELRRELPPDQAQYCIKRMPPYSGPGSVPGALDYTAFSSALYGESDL

[2] = molecular target: T2, HA-tagged cMLCK (cardiac-specific myosin light chain kinase) expressed in transgenic mouse hearts (mouse) (UniProt Q3UIZ8); assay: co-IP; mouse heart lysates; lysis buffer 25 mM HEPES, 100 mM NaCl, 5 mM MgCl2, 1 mM DTT, 1% triton, 10% glycerol, pH 7.6; precipitated with HA-agarose, Western blotting
T2 sequence: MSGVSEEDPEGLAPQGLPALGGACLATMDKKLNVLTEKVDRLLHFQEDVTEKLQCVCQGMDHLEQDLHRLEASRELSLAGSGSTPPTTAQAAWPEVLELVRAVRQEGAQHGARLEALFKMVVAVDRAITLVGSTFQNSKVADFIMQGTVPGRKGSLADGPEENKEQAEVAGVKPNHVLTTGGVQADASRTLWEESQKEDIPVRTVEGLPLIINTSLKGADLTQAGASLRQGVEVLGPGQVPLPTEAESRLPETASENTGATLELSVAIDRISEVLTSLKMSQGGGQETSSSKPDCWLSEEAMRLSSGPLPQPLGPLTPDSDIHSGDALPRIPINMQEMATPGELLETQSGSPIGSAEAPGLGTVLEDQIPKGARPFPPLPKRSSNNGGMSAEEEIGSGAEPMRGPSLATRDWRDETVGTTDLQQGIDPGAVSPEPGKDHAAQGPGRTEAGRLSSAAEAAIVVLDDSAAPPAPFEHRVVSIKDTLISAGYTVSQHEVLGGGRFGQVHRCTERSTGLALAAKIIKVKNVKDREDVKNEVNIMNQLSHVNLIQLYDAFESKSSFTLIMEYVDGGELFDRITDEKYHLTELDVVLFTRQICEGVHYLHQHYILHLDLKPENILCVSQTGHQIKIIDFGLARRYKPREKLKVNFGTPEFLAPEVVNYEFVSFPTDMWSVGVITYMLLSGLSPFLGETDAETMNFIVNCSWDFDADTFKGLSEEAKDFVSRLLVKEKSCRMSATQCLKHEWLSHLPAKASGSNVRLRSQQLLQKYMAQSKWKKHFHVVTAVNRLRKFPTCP

binding [1]	binding [2]	Substance
binds	–	Myc-α-actinin2, full length, expressed in HEK293 cells (from UniProt Q9JI91 1-894)
–	binds	α-actinin2, endogenous in mouse heart (from UniProt Q9JI91 1-894)
